Experimental data: paper PMC8408166

By UniProt entry, the sequences of proteins in these tests, tags left out.
UniProt O14744: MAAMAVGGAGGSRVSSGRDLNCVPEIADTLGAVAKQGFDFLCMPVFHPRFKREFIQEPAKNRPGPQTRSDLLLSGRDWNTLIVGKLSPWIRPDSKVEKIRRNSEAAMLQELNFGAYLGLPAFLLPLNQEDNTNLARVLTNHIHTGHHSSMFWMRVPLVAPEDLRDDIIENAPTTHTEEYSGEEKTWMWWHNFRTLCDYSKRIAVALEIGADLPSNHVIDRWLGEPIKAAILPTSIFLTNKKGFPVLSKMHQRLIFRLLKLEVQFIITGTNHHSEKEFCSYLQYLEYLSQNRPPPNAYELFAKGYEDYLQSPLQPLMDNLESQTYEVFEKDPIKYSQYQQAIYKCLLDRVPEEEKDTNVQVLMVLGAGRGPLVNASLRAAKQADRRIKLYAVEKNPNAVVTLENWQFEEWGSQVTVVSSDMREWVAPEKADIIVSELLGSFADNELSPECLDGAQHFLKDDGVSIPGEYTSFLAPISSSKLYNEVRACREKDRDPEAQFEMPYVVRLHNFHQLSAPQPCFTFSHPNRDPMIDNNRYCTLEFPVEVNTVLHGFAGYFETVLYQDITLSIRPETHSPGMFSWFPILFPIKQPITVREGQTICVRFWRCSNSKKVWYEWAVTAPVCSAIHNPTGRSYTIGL
UniProt Q16531: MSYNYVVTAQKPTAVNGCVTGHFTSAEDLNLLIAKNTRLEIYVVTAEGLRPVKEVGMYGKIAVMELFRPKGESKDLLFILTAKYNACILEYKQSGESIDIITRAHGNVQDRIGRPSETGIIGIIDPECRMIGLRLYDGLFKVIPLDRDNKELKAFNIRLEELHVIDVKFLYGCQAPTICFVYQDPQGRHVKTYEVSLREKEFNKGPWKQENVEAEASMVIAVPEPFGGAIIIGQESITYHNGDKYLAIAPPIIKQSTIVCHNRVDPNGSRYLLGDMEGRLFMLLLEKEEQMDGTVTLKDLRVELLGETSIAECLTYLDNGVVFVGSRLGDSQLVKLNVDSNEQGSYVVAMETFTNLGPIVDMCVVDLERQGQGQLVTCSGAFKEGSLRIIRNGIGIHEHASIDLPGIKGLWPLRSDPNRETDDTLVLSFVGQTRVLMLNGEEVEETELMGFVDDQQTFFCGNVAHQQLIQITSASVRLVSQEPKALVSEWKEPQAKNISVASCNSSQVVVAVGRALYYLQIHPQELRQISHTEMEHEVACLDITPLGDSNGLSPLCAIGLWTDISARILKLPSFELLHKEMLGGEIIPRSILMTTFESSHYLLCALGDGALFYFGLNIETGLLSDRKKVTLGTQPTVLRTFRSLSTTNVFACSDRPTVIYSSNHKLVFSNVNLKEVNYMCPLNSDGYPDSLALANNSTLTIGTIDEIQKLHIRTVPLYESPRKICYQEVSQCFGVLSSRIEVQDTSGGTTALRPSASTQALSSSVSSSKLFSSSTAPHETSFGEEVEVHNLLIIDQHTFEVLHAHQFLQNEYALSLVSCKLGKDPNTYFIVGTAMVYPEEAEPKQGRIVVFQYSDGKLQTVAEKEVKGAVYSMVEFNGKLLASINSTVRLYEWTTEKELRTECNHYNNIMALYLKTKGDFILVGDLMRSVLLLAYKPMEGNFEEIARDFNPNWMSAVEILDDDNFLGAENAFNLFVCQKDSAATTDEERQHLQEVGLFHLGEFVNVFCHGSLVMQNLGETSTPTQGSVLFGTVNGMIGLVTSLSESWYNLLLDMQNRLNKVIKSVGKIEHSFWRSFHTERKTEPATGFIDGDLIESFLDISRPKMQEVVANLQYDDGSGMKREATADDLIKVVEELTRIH
UniProt Q8WXI9: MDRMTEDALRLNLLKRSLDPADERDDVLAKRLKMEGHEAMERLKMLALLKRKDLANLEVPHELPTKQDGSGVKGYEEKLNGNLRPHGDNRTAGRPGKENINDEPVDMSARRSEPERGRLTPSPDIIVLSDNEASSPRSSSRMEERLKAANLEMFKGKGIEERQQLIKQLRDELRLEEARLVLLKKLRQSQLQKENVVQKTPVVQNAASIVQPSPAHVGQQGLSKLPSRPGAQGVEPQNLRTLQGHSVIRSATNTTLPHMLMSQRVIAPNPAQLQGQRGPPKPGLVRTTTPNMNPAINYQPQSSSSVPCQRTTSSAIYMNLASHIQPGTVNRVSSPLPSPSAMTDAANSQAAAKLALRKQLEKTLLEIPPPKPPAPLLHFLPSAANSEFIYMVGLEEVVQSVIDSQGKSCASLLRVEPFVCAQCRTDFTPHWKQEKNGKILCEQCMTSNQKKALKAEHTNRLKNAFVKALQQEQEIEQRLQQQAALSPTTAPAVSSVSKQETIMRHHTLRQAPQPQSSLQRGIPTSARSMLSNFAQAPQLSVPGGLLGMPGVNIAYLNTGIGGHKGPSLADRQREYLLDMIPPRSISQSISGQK
UniProt Q13547: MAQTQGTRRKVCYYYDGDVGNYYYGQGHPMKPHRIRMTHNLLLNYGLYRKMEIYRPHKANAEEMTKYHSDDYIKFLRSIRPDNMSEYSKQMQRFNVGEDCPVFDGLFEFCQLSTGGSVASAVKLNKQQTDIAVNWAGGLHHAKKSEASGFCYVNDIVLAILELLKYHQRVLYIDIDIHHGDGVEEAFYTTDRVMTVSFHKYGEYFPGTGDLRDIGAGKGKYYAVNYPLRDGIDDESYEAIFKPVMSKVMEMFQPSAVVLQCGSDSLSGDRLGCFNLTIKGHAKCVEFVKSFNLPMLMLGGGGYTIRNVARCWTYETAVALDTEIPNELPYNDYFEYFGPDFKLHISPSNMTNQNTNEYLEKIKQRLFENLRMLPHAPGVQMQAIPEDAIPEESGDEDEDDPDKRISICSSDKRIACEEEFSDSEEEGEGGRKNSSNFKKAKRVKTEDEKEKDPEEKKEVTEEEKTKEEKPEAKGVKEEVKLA
UniProt Q09028: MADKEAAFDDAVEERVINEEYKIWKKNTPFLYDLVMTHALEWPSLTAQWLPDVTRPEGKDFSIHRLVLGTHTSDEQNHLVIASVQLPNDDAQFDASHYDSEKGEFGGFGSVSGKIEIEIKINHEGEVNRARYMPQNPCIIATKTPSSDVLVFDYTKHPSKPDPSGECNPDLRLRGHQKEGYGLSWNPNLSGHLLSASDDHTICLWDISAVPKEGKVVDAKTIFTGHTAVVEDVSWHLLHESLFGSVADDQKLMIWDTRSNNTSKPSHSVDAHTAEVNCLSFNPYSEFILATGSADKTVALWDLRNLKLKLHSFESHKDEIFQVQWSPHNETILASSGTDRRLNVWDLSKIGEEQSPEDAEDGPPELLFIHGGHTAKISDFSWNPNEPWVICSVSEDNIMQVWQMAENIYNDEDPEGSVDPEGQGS
UniProt O95863: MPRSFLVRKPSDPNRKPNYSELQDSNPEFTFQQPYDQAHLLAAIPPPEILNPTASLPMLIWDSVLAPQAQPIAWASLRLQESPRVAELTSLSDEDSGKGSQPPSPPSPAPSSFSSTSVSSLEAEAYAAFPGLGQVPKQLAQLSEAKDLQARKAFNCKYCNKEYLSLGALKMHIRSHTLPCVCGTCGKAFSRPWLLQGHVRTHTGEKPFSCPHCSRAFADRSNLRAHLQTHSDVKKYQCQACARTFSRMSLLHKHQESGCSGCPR

B1: OGT, endogenous (protein, UniProt O15294 1-1046)
chain: MASSVGNVADSTEPTKRMLSFQGLAELAHREYQAGDFEAAERHCMQLWRQEPDNTGVLLLLSSIHFQCRRLDRSAHFSTLAIKQNPLLAEAYSNLGNVYKERGQLQEAIEHYRHALRLKPDFIDGYINLAAALVAAGDMEGAVQAYVSALQYNPDLYCVRSDLGNLLKALGRLEEAKACYLKAIETQPNFAVAWSNLGCVFNAQGEIWLAIHHFEKAVTLDPNFLDAYINLGNVLKEARIFDRAVAAYLRALSLSPNHAVVHGNLACVYYEQGLIDLAIDTYRRAIELQPHFPDAYCNLANALKEKGSVAEAEDCYNTALRLCPTHADSLNNLANIKREQGNIEEAVRLYRKALEVFPEFAAAHSNLASVLQQQGKLQEALMHYKEAIRISPTFADAYSNMGNTLKEMQDVQGALQCYTRAIQINPAFADAHSNLASIHKDSGNIPEAIASYRTALKLKPDFPDAYCNLAHCLQIVCDWTDYDERMKKLVSIVADQLEKNRLPSVHPHHSMLYPLSHGFRKAIAERHGNLCLDKINVLHKPPYEHPKDLKLSDGRLRVGYVSSDFGNHPTSHLMQSIPGMHNPDKFEVFCYALSPDDGTNFRVKVMAEANHFIDLSQIPCNGKAADRIHQDGIHILVNMNGYTKGARNELFALRPAPIQAMWLGYPGTSGALFMDYIITDQETSPAEVAEQYSEKLAYMPHTFFIGDHANMFPHLKKKAVIDFKSNGHIYDNRIVLNGIDLKAFLDSLPDVKIVKMKCPDGGDNADSSNTALNMPVIPMNTIAEAVIEMINRGQIQITINGFSISNGLATTQINNKAATGEEVPRTIIVTTRSQYGLPEDAIVYCNFNQLYKIDPSTLQMWANILKRVPNSVLWLLRFPAVGEPNIQQYAQNMGLPQNRIIFSPVAPKEEHVRRGQLADVCLDTPLCNGHTTGMDVLWAGTPMVTMPGETLASRVAASQLTCLGCLELIAKNRQEYEDIAVKLGTDLEYLKKVRGKVWKQRISSPLFNTKQYTMELERLYLQMWEHYAAGNKPDHMIKPVEVTESA

Target: HA-tagged PRMT5 (UniProt O14744)
Assay: affinity purification with mass spectrometry; lysate of HeLa cells stably expressing HA-PRMT5 on anti-HA affinity column; washed with BC500 buffer (50 mM Tris, 2 mM EDTA, 500 mM KCl, 10% glycerol); eluted with HA peptide; SDS-PAGE, silver stain, LC-MS/MS

binding, binds:
DDB1, endogenous (from UniProt Q16531 1-1140)
GATAD2B, endogenous (from UniProt Q8WXI9 1-593)
HDAC1, endogenous (from UniProt Q13547 1-482)
RbAp48, endogenous (from UniProt Q09028 1-425)
Snail, endogenous (from UniProt O95863 1-264)
B1

Results are given in words; binding and its absence hold for the method and conditions named. Binding seen in cells or lysates may run through a third protein. A yes stands for co-enrichment or nearness to the bait. Other partners may have been found.
